From PubChem BioAssay AID1439 (NMMLSC, 2008)
Out of some 220,000 compounds screened, about 770 (0.35%) were called active. The inconclusive results got no clear call from the source; some entries with a clear call stand among them for comparison. Cut-off read from the data, not from the text of the source: active = binding response below about 49% or above about 150%; inconclusive = no clear call, values can overlap the other calls; inactive = in between.

Chains of the proteins cited; added tags and fusions are not shown.
UniProt P09471, whole entry, looked up: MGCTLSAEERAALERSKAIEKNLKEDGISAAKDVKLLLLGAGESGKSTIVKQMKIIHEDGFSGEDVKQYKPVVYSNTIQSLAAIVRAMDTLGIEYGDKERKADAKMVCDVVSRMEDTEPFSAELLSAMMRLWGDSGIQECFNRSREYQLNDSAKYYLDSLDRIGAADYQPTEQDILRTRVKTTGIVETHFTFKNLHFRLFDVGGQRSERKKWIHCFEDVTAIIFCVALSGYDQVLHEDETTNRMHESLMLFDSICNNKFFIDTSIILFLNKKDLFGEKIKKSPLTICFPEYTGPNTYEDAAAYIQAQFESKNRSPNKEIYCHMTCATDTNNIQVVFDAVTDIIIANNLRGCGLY

Each molecule was assayed against Guanine nucleotide-binding protein G(o) subunit alpha (Homo sapiens) (UniProt P09471) (assay: RGS7-Galphao binding modulators, primary screen, biochemical, multiplexed bead flow cytometry (AID 1439;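 note: fluorescent Galphao held in activated GDP-AlF4 state binding bead-coupled RGS7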)). Conditions: at 10 µM, actives lie on both sides.
For `C/C(=N\NC(=O)OC(C)(C)C)c1ccc(-n2ccnc2)cc1`, the binding response (% of control) was inconclusive: 95%.
In the case of `Cc1ccc(N(C(=O)CS(=O)CC(=O)Nc2ccc(F)cc2)C(C(=O)NC2CCCCC2)c2ccco2)cc1` (stereo not given), the binding response (% of control) is reported as inactive: 104%.
In the case of `CC1=CCC(C(=O)O)C(C(=O)Nc2ccc(-c3nc4ccc(C)cc4s3)cc2)C1` (stereo not given), the binding response (% of control) is reported as inconclusive: 93%.
In the case of `O=C(CC1C(=O)N(c2ccc(Cl)cc2)C(=S)N1CCc1ccncc1)Nc1ccc(F)cc1` (stereo not given), the binding response (% of control) is reported as inactive: 94.7%.
With `Cc1nc2ccccn2c1C(=O)NC1CCCc2ccccc21` (stereo not given) the binding response (% of control) was inactive: 96.8%.
`CCCCC(CCC(=O)Nc1cccc([N+](=O)[O-])c1)C(=O)O` (stereo not given) was tested, and the binding response (% of control) was inconclusive: 40.5%.
For `COc1cc([N+](=O)[O-])ccc1NC(=O)CSc1nccn1C`, the binding response (% of control) was inactive: 101%.
For `O=C(O)c1cc(S(=O)(=O)N2CCOCC2)ccc1N1CCCCC1`, the binding response (% of control) was inactive: 100%.
With `N/C(CN1CCCCC1)=N\S(=O)(=O)c1cc(Cl)cc(Cl)c1` the binding response (% of control) was inconclusive: 108%.
With `O=C(CSc1nnc(SCc2ccc(F)cc2)s1)Nc1ccc(C(=O)O)cc1` the binding response (% of control) was inconclusive: 85.5%.
In the case of `O=C(NNc1ccc(F)cc1)c1c(F)cccc1Cl`, the binding response (% of control) is reported as inconclusive: 85.2%.
For `CCN(CC)CCNC(=O)c1cn(CC)c2cc(N3CCN(C(=O)c4ccco4)CC3)c(F)cc2c1=O`, the binding response (% of control) was inconclusive: 81.5%.
In the case of `COc1cc(/C=C2/C(=O)CNC2=O)ccc1O`, the binding response (% of control) is reported as inconclusive: 99.6%.
With `Cn1cnnc1SCC(=O)c1ccc(O)c(O)c1` the binding response (% of control) was inactive: 92.9%.
For `COCCn1c(SCC(=O)NC(=O)NC(C)C)nc2ccccc21`, the binding response (% of control) was inactive: 102%.
With `CN1CCN(c2oc(-c3ccc([N+](=O)[O-])cc3)nc2C#N)CC1` the binding response (% of control) was inconclusive: 104%.
In the case of `O=C(Nc1ccc(N2CCOCC2)cc1)C1(c2ccc(Cl)cc2)CCC1`, the binding response (% of control) is reported as inconclusive: 109%.
`COc1ccc(Cn2c(=S)[nH]c3ccccc32)cc1` was tested, and the binding response (% of control) was inconclusive: 77.6%.
For `COc1ccc(C(=O)OCC(=O)Nc2cc(S(=O)(=O)N3CCOCC3)ccc2N2CCCC2)cc1`, the binding response (% of control) was inconclusive: 104%.
With `N#Cc1ccc(S(=O)(=O)N2CCCN(c3nc4ccc(Cl)cc4s3)CC2)cc1` the binding response (% of control) was inconclusive: 123%.
With `O=C(NCCN1CCCCC1)c1ccc(Oc2cc(Cl)cc(Cl)c2)o1` the binding response (% of control) was inconclusive: 69.7%.
`COc1cc(NC(=S)N(C)CCC#N)c(OC)cc1Cl` was tested, and the binding response (% of control) was inconclusive: 119%.
In the case of `CC(C)CCOc1cccc(OCC(=O)O)c1`, the binding response (% of control) is reported as active: 375% [activator].
For `Cc1nnc(N/N=C/c2ccc(-c3ccc(Br)cc3)o2)n1N`, the binding response (% of control) was inconclusive: 96.4%.
With `COC(=O)c1cc(OC)cc(O)c1C(=O)c1c(O)cc(C)cc1O` the binding response (% of control) was inconclusive: 52.3%.
For `O=C(N/N=C/c1ccc(OCCCF)cc1)c1ccc(C(F)(F)F)cc1`, the binding response (% of control) was inactive: 103%.
`O=S(=O)(Cc1ccccc1)Nc1ccc(S(=O)(=O)N2CCCC2)cc1` was tested, and the binding response (% of control) was inconclusive: 130%.
`COc1cc(CN2CCCC(C(=O)c3ccc4c5c(cccc35)CC4)C2)cc(OC)c1O` (stereo not given) was tested, and the binding response (% of control) was inactive: 101%.
For `CC(C)(CC(=O)O)CC(=O)N1CCCN(c2nc3ccc(Cl)cc3s2)CC1`, the binding response (% of control) was inconclusive: 103%.
For `CC(C)(C)c1ccc(C(=S)N2CCN(c3ccccc3)CC2)cc1`, the binding response (% of control) was inconclusive: 80.8%.
For `O=C1C2CCCN2C(c2cccc(Br)c2)N1c1ccc(F)cc1` (stereo not given), the binding response (% of control) was inactive: 113%.
`COC(=O)CSc1nc(N2CCOCC2)c2c(c1C#N)CCCC2` was tested, and the binding response (% of control) was inconclusive: 117%.
With `Cc1ccc(N2C(=O)N(CC(=O)Nc3ccc(C)cc3C)C(=O)C2C)cc1` (stereo not given) the binding response (% of control) was inconclusive: 100%.
`O=C(O)CNC(=O)CCn1nnc2ccccc2c1=O` was tested, and the binding response (% of control) was inconclusive: 98.9%.
For `COc1ccc2nnc(-c3ccc(C(F)(F)F)cc3)n2n1`, the binding response (% of control) was inconclusive: 78.8%.
`COc1ccccc1NC(=O)N1CCN(C(=O)Nc2ccccc2OC)CC1` was tested, and the binding response (% of control) was inconclusive: 108%.
In the case of `CN(CCC1CCCCO1)C(=O)CCc1nnc(C2CCCCC2)o1` (stereo not given), the binding response (% of control) is reported as inactive: 101%.
`C=CC(C)(C)c1[nH]cnc1/C=C1\NC(=O)C(C(C)C)NC1=O` (stereo not given) was tested, and the binding response (% of control) was inconclusive: 119%.
In the case of `O=C(Nc1ccccc1)Nc1ccc(Oc2ncnc3cc(Cl)ccc23)nc1`, the binding response (% of control) is reported as inconclusive: 98.1%.
With `Cc1[nH]c2ccccc2c1/C=N/Nc1cccc(C(=O)O)c1` the binding response (% of control) was inconclusive: 105%.
`CCOC(=O)NNc1ccc2nonc2c1[N+](=O)[O-]` was tested, and the binding response (% of control) was inconclusive: 111%.
In the case of `COC(=O)c1ccc(S(=O)(=O)NCCc2ccccc2OC)n1C`, the binding response (% of control) is reported as inconclusive: 147%.
In the case of `O=C(NCCCN1CCC(Cc2ccccc2)CC1)C1CCN(S(=O)(=O)N2CCC3(CC2)OCCO3)CC1`, the binding response (% of control) is reported as inconclusive: 88.2%.
With `Cc1cc(NC(=O)CSc2ncnc3c2cnn3-c2cccc(Cl)c2)no1` the binding response (% of control) was inactive: 96.8%.
`COc1ccc(S(=O)(=O)N2CCCCCC2)cc1NC(=O)Cc1ccccc1F` was tested, and the binding response (% of control) was inconclusive: 207%.
For `Cc1ccccc1OCC(=O)Nc1nnc(C2CCCCC2)s1`, the binding response (% of control) was inconclusive: -18.4%.
For `Fc1cccc(F)c1/C=N/Nc1ccccn1`, the binding response (% of control) was inconclusive: 87.3%.
`O=C(NCc1csc(-c2cccs2)n1)C1CCCCC1` was tested, and the binding response (% of control) was inconclusive: 100%.
In the case of `Cc1nc(N2CCN(c3ccccc3)CC2)[nH]c(=O)c1CCC(C)C`, the binding response (% of control) is reported as inconclusive: 87.1%.
For `Cc1c(C(=O)N2CC3(CC(c4cccc(NC(=O)CC(c5ccccc5)c5ccccc5)c4)=NO3)C[C@@H]2C(N)=O)cc([N+](=O)[O-])cc1[N+](=O)[O-]` (stereo not given in full), the binding response (% of control) was inconclusive: 99.4%.
For `Nc1ccc(CNc2ncn[nH]2)cc1`, the binding response (% of control) was inconclusive: 103%.
For `COCCN=c1scc(-c2ccc3c(c2)NC(=O)CO3)n1/N=C(\C)c1ccc(O)cc1`, the binding response (% of control) was inconclusive: 237%.
With `Cc1cccc(C2c3[nH]c4ccccc4c3CCN2Cc2cccn2-c2ncccn2)c1` (stereo not given) the binding response (% of control) was inconclusive: 94.7%.
`Cc1c(N=Cc2c(O)n(Cc3ccco3)c(=O)c3ccccc23)c(=O)n(-c2ccccc2)n1C` was tested, and the binding response (% of control) was inactive: 99.8%.
For `COc1ccc(CCN(C)S(=O)(=O)c2ccc(Cl)nc2)cc1OC`, the binding response (% of control) was inconclusive: 113%.
In the case of `Oc1ccc(Nc2ccnc3cc(Cl)ccc23)cc1`, the binding response (% of control) is reported as inconclusive: 80.9%.
In the case of `O=C(COC(=O)c1ccc(S(=O)(=O)NCc2ccco2)cc1)NC1CCCCC1`, the binding response (% of control) is reported as inactive: 94.3%.
With `CCC(=O)Nc1nc2nc(-c3ccccc3)cc(=O)n2[nH]1` the binding response (% of control) was inconclusive: 95.7%.
In the case of `CCN(CC)C1=CC2=CC(=C(C#N)C#N)CCC2CC1` (stereo not given), the binding response (% of control) is reported as inactive: 142%.
For `Nc1nc(NCCCN2CCOCC2)nc(Nc2cccc(Cl)c2)c1[N+](=O)[O-]`, the binding response (% of control) was inconclusive: 60.7%.
With `COc1cc2c(cc1NC(=O)/C=C/c1ccccc1)oc1ccccc12` the binding response (% of control) was inactive: 104%.
In the case of `O=c1cc(CCl)[nH]c2nc3ccccc3n12`, the binding response (% of control) is reported as inconclusive: 111%.
For `COc1cc2ccccc2cc1C(=O)NC(=S)Nc1cccc(C(=O)O)c1`, the binding response (% of control) was inconclusive: 93.5%.
`O=C(Nc1ccnc(=O)[nH]1)c1sc2ccccc2c1Cl` was tested, and the binding response (% of control) was inconclusive: 92.5%.
`Cc1ccc(NC(=O)N2CCCCC2)cc1NC(=O)N1CCCCC1` was tested, and the binding response (% of control) was inconclusive: 45.5%.
`COc1ccc(/C=C/C(=O)C2(O)CCCCC2)cc1` was tested, and the binding response (% of control) was inconclusive: 108%.
In the case of `COc1cc(NC2CCCCC2O)c2nc(-c3ccc(Cl)cc3)ccc2c1` (stereo not given), the binding response (% of control) is reported as inconclusive: 95.9%.
With `CN(C)C(=O)c1cccn(Cc2cccc(C(F)(F)F)c2)c1=O` the binding response (% of control) was inconclusive: 95%.
In the case of `COc1cccc(C(=O)c2c[nH]c(C(=O)NCc3cccnc3)c2)c1`, the binding response (% of control) is reported as inconclusive: 94.8%.
With `CCN(CC)CCN1C(=O)C(=O)/C(=C(/O)c2ccc(OC(C)C)cc2)C1c1cccs1` (stereo not given) the binding response (% of control) was inconclusive: 77.7%.
In the case of `Cn1cnc([N+](=O)[O-])c1Sc1ncn[nH]1`, the binding response (% of control) is reported as inconclusive: 31.2%.
With `CC(C)(C)c1ccc2c(c1)OC(C(=O)N/N=C/c1ccc([N+](=O)[O-])o1)CO2` (stereo not given) the binding response (% of control) was inconclusive: 101%.
In the case of `COc1ccc(Cl)cc1C(=O)NNC(=S)NC(=O)c1cc(-c2ccc(Cl)cc2)nc2ccccc12`, the binding response (% of control) is reported as active: 21.2%.
`O=C(/C=C\c1ccc(-c2cccc([N+](=O)[O-])c2)o1)N1CCOCC1` was tested, and the binding response (% of control) was inactive: 91%.
For `COC(=O)c1cccc(Nc2ncnc3sccc23)c1`, the binding response (% of control) was inconclusive: 106%.
`Cc1ccc(NC(=S)N2CCCC(O)C2)cc1` (stereo not given) was tested, and the binding response (% of control) was inconclusive: 82.2%.
With `NC(=O)CC(NC(=O)Cc1ccc(Br)cc1)c1ccc(NCCc2ccc(Cl)cc2)c([N+](=O)[O-])c1` (stereo not given) the binding response (% of control) was inconclusive: 102%.
For `O=C(NCc1nc2ccccc2[nH]1)c1cccc(S(=O)(=O)N2CCCCC2)c1`, the binding response (% of control) was inconclusive: 85.3%.
In the case of `CC(C)n1cc(/C(N)=N/O)c(=O)n(Cc2ccccc2)c1=O`, the binding response (% of control) is reported as inconclusive: 155%.
In the case of `COc1ccc(N(C)C(=O)c2onc3c2CCCC3)cc1`, the binding response (% of control) is reported as inactive: 95.9%.
`O=C1CS/C(=N/N=C/c2ccncc2)N1` was tested, and the binding response (% of control) was inconclusive: 72.7%.
With `NC(=O)C1(N2CCCCC2)CCN(C(=S)NC2CCCC2)CC1` the binding response (% of control) was inconclusive: 92.4%.
In the case of `CC(=O)c1c(OC(=O)c2ccc(C)cc2)c2ccccc2n1C`, the binding response (% of control) is reported as inactive: 105%.
`COc1ccccc1NC(=O)Cn1nnc(-c2ccccc2NC(=O)c2cnccn2)n1` was tested, and the binding response (% of control) was inactive: 101%.
With `CSCC[C@H](NC(=O)Nc1cccc(Br)c1)C(=O)O` the binding response (% of control) was inconclusive: 115%.
In the case of `C/C(=N\NC(=O)CCn1nnc2ccccc21)c1cccs1`, the binding response (% of control) is reported as inconclusive: 367%.
With `CCCN(CCC)C(=O)c1cc([N+](=O)[O-])cc2c1-c1ccc([N+](=O)[O-])cc1C2=C(C#N)C#N` the binding response (% of control) was inconclusive: 169%.
In the case of `Cn1ncc2c(N3CCN(c4ccc(Cl)c(Cl)c4)CC3)ncnc21`, the binding response (% of control) is reported as inconclusive: 87%.
For `O=C(NCc1ccc(S(=O)(=O)NC2CCCCC2)s1)c1ccccc1`, the binding response (% of control) was inconclusive: 71.8%.
In the case of `Cc1ccc(Cl)cc1NC(=O)Nc1cccs1`, the binding response (% of control) is reported as inactive: 101%.
